Test results reported in PubChem BioAssay AID2685 (National Center for Advancing Translational Sciences (NCATS), 2010).
The list shows a part of the results. Shown are side measurements of this screen, not its main read-out; they come without a call. Compounds called inactive in the main read-out are mostly missing here. Potencies come from curve fits of mixed quality, noted in brackets.

Experiment: qHTS Assay for Lipid Storage Modulators in Drosophila S3 Cells;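 on cell number change: cells counted by Cell Tracker Red CMTPX staining in the red channel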
Settings: BODIPY lipid droplet fluorescence, 18-24 h; for cell number change: measured here: cell count max response, cells fed with added oleic acid
Outline: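 Laser-scanning cytometry quantifies lipid droplet accumulation (500–530 nm total intensity; droplet/cell object ratio) in oleic acid-fed (400 uM added) Drosophila S3 cells treated with a concentration series. 20 uM Triacsin C defined 100% inhibition.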

[1] = measured here: cell number channel AC50, cells fed with added oleic acid
[2] = measured here: lipid fluorescence (Fed channel) AC50, cells fed with added oleic acid

Structure (SMILES)	cell number change [%]	AC50 [1]	AC50 [2]
CCc1c(C(=O)NC2CCCC2)csc1C	48	20.6 µM [rising, single point]	
CN1N=C(C(C)(C)C)CSC1=Nc1ccccc1	-18.6		29.1 µM [falling, single point]
Cc1cccc(OCc2nnc(SC(C)C(=O)O)n2Cc2ccccc2)c1 (stereo not given)	16.6		0.0259 µM [rising, full curve, poor fit]
COC(=O)c1cc2ccccc2c(-c2c(OC)c(C(=O)OC)cc3ccccc23)c1OC	-16.8		1.64 µM [falling, partial curve]
CCCCCn1c(Br)nc2c1c(=O)n(CC(N)=O)c(=O)n2C	2.53		0.259 µM [rising, full curve]
C=CCN(c1ccccc1)S(=O)(=O)c1cccc(C(=O)N2CC(C)CC(C)C2)c1 (stereo not given)	-15.4		
COc1ccc(-c2nc(C#N)c(N3CCC(C(N)=O)CC3)o2)cc1	86	29.1 µM [rising, single point]	
COc1ccccc1/C=N/Nc1nc(C)cc(C)n1	-3.31		0.731 µM [rising, full curve, poor fit]
CN(/N=C/c1cc(Cl)cc(Cl)c1O)c1c(Cl)cccc1[N+](=O)[O-]	-41.2	29.1 µM [falling, single point]	29.1 µM [falling, single point]
Cn1c(COc2ccccc2)nnc1SCc1nc2ccccc2[nH]1	-10.5		0.0259 µM [falling, full curve, poor fit]
O=C(C1CCN(S(=O)(=O)c2ccc(F)cc2)CC1)N1CCOCC1	-8.93		
CC1CN(S(=O)(=O)c2cn(C)c(=O)n(C)c2=O)CC(C)O1 (stereo not given)	-33.1	0.146 µM [falling, full curve, poor fit]	4.11 µM [falling, full curve]
O=C(O)c1cc(=O)[nH]c2c(Cl)cccc12	-57.8	6.51 µM [falling, single point]	6.51 µM [falling, single point]
COc1ccc(NC(=O)C2CCCN2C(=O)NCc2ccccc2)cc1 (stereo not given)	-3.2		4.11 µM [falling, single point]
O=C(NCc1ccccn1)c1ccc(Cn2c(=S)[nH]c3ccccc3c2=O)cc1	-65	29.1 µM [falling, single point]	29.1 µM [falling, single point]
CN(Cc1ccccc1)c1ccc(N2C(=O)CCCC2=O)cc1[N+](=O)[O-]	-38	0.206 µM [falling, full curve]	0.92 µM [falling, full curve]
Cc1ccc(CCN2CC(C(=O)O)CC2=O)cc1 (stereo not given)	-28.2		6.51 µM [rising, single point]
CC1Cc2cc(S(=O)(=O)CCC(=O)N3CCN(c4ccccc4)CC3)ccc2N1C(=O)C1CC1 (stereo not given)	18.7		7.31 µM [rising, partial curve]
CN(CCOC(=O)c1ccco1)Cc1ccccc1	4.28		
O=C(/C=C/c1ccccc1)OCC(=O)N1CCCC1	16.7		2.91 µM [rising, partial curve, poor fit]

Structure (SMILES)	cell number change [%]	AC50 [1]	AC50 [2]
O=C(N/N=C/c1cccnc1)c1cc2ccccc2o1	-16.4		2.06 µM [falling, partial curve]
CCOc1ccc(-n2nc3c(=O)[nH]nc(C)c3c2C)cc1	16.7		11.6 µM [rising, partial curve, poor fit]
O=C(Nc1ccc(F)cc1)c1ccc(S(=O)(=O)NCC2CCCO2)cc1 (stereo not given)	-12.6		0.13 µM [falling, full curve, poor fit]
OCCCCNCc1cc(Br)ccc1OCc1ccccc1	-19.2		6.51 µM [rising, single point]
Cn1cccc1/C=C1\SC(=O)N(c2ccc(O)cc2)C1=O	15	0.164 µM [rising, full curve, poor fit]	
Cc1ccc2nc(-c3ccc(NC(=O)CN4C(=O)c5ccccc5C4=O)cc3)sc2c1	-46.4	9.2 µM [falling, partial curve]	10.3 µM [falling, partial curve]
Cc1cc(C)c(S(=O)(=O)N2CCC(C(=O)NCc3ccncc3)CC2)c(C)c1	6.18		1.3 µM [rising, partial curve]
COc1ccc(CC(=O)OCC(=O)NCc2ccco2)cc1OC	10		
O=C(N/N=C/c1ccc2c(c1)OCO2)C(=O)Nc1ccc2ccccc2c1	-37.5	8.2 µM [falling, partial curve, poor fit]	11.6 µM [falling, partial curve]
O=C(NCc1cccs1)c1cc2c(s1)CCCC2	275	29.1 µM [rising, single point]	4.61 µM [rising, partial curve]
CCOc1cc(C(=O)NC)cc(OCC)c1OCC	37.8	13 µM [rising, partial curve, poor fit]	
Nc1c(NCc2ccccc2)c(=O)[nH]c(=O)n1Cc1ccccc1	24.1	0.92 µM [rising, partial curve, poor fit]	6.51 µM [rising, single point]
O=C(Oc1ccccc1F)C1CCN(C(=O)c2ccc(F)cc2)CC1	-11.1		18.4 µM [rising, single point]
O=C(C[n+]1ccc(/C=N/O)cc1)NCc1ccccc1	-41.1	32.6 µM [falling, single point]	
COc1ccc(-c2nc(CCNC(=O)c3ccco3)cs2)cc1OC	0.711		
CC(=O)Nc1ccc(NC(=O)CSc2nc(=O)n(Cc3ccncc3)c3c2CCC3)cc1	-3.21		
Cc1ccc[n+](CC(=O)Nc2cc(C(F)(F)F)ccc2N2CCOCC2)c1	-29.2		
CCOC(=O)C(NC(=O)Nc1ccc(Cl)cn1)(Oc1ccc(F)cc1)C(F)(F)F (stereo not given)	18		25.9 µM [falling, single point]
COc1ccc(NC(=O)C2CCN(S(=O)(=O)c3cccc4cccnc34)CC2)cc1	32.1	29.1 µM [rising, single point]	

Quoted at random: 2 compounds from above, in no set order.
Structure (SMILES)	cell number change [%]	AC50 [1]	AC50 [2]
CCOC(=O)C(NC(=O)Nc1ccc(Cl)cn1)(Oc1ccc(F)cc1)C(F)(F)F (stereo not given)	18		25.9 µM [falling, single point]
Cc1ccc2nc(-c3ccc(NC(=O)CN4C(=O)c5ccccc5C4=O)cc3)sc2c1	-46.4	9.2 µM [falling, partial curve]	10.3 µM [falling, partial curve]
